Data taken from paper PMC9023524.
No constants are given. Whether binding was seen depends on the method and setting. Binding seen in cells or lysates may run through a third protein. Here binding means that the protein was enriched with, or labelled near, the bait; the list need not be complete.

Target: BirA*-ASPH (myc-BirA* fused to the N-terminus of junctin)
Assay: proximity labelling; BioID in living mouse hearts: AAV9-Tnnt2 BirA*-ASPH or BirA*-TRDN given at P1, biotin from P21 to P28, hearts collected at P28; 0.5 mg protein extract on streptavidin Dynabeads, washed with RIPA buffer, on-bead digestion, LC-MS/MS; control AAV-GFP; one replicate pooled from three hearts for each sensor

B1: TRDN (triadin), recovered as a BioID hit (protein, UniProt E9Q9K5 1-693)
chain: MTEITAEGNASTTTTVIDNKNGCIPKSPGKVLKRSVTEDIVTTFSSPAAWLLVIALIITWSAVAIVMFDLVDYKNFSASSIAKIGSDPLKLVNDAVEETTDWIYGFFSLLSDIISSEGDEDDEDADEDIDKGEIEEPPLKRKEIHQEKAEKEEKPEKKIQTKASHREREKGKEKLKGEKPEKTATHKEKLEKKERPETKMMAKEDKKIKTKEKTEEKAKKEMKVGKQEKVKPTAAKAKETPKTPPKARKKDDKEMPAVHEQKDQYAFCRYMIDMFVHGDLKPGQSPVMPPPSLTPSKPALSTTALEEKEKEEKKKMEKKDTSDTKKKEKEVKKKSEETTIDGKGKEPGKPPETKQMTAKLTTQAAARKDEKKEESKKMRKPTEEQPKGKKQEKKEKHIEPAKTPKKEHPGPSEKLKKAKAEQAKEEIAAASTKKALHGKKEEKAKTVEQEVKKEKSGKSSSDLKDKEVKKEKSGKSSSDLKDKEPQLKNEEKSKPQVKKEAKLASSDKGQTRKQNITRPEQVIPHVKPEKAEHQEKGHPSIKKDKPKPSSKGAPEVPDSGKKKIEKSEKESKVPTREENLQVYNVTKAEKPGKIPKDSKEAPASKKDKEDSKEAPTSKKDKEDSKDVPHSKKDKEVTDDVSSPKKQTRPISFFQCVYLNGYNGYGFQFPVTPVQQPGENPGKTNSPGQKQQEQ
**Q.** With B1 as the binder, how does the binding read?
**A.** binds
